Experimental data: patent CN114671949A
These are yes or no findings as the source states them, for the method shown. Some entries that bind do so weakly or less than the wild type. Tags and fused reporters may be left off the sequences shown.

Chains of the proteins cited; added tags and fusions are not shown. Residues count along the entry.
UniProt P05017, residues 49-118: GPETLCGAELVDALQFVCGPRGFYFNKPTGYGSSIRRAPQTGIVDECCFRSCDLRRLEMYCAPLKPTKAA

Columns and labels:
[1] = target: 小鼠组织中的IGF1 (endogenous mouse IGF1 in lung and testis tissue) (mouse) (UniProt P05017); experiment: immunohistochemistry on mouse testis sections; nanobody as primary antibody, HRP anti-His antibody
[2] = target: 小鼠组织中的IGF1 (endogenous mouse IGF1 in lung and testis tissue) (mouse) (UniProt P05017); experiment: Western blot of mouse lung tissue protein; nanobody as primary antibody, anti-His antibody for detection

B1: IGF1纳米抗体 (purified, His-tagged IGF1 nanobody expressed in E. coli from pQE30) (VHH, not shown: small tags and cut ends)
VHH: ESGGGLVQPGGSLRLSCDETSSRTLDYYKIGWFRRAPGKEREGVSCTESNNGSTTYADSVKGRFTVSRDIAENKVYLQMKNLKPEDTGIYYCGADLEVFRRCSFVSNEYDYWGQGTQVTVSS
- binding [1]: binds
- binding [2]: binds
